Measured values taken from paper PMC4059888.
These are yes or no findings as the source states them, for the method shown. Binding seen in cells or lysates may run through a third protein. These calls come from enrichment with a bait or labelling near it, and not all partners need be listed.

Molecular target: T1, Nsl1 (mouse (endogenous in mESCs)) (UniProt Q80TG1)
T1 sequence: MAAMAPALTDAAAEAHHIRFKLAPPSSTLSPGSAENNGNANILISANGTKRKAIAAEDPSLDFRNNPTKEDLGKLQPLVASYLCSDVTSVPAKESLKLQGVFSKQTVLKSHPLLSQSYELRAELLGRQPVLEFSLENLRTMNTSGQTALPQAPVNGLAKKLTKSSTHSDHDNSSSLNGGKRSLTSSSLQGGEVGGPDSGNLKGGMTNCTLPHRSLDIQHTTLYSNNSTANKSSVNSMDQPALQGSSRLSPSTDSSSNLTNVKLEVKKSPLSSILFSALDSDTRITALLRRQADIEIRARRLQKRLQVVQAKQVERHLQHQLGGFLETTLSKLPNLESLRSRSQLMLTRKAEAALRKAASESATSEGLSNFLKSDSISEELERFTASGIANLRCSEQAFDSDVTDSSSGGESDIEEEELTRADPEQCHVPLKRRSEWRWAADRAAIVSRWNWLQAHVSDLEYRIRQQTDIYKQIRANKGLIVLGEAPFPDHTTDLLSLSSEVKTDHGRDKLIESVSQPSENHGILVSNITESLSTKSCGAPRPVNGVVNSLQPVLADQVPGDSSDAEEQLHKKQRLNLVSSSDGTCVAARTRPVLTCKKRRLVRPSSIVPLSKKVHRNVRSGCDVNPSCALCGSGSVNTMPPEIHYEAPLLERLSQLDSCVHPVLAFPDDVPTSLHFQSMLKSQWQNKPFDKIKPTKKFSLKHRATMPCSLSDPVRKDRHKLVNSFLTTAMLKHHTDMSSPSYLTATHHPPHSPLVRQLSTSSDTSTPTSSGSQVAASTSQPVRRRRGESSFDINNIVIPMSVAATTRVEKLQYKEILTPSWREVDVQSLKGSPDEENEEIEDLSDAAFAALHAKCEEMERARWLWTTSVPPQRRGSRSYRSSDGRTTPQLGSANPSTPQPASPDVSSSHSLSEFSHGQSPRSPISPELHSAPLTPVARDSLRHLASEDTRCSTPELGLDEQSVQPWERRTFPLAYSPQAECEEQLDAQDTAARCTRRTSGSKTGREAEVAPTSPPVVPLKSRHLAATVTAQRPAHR
Assay: affinity purification with mass spectrometry; anti-Msl1 (3208) or anti-Nsl1 (3130) antibody on protein A Sepharose, 3 mg (Msl1) or 1 mg (Nsl1) mESC nuclear extract; washes in IP buffer (25 mM Tris-HCl pH 7.9, 10% glycerol, 0.1% NP40, 0.5 mM DTT, 5 mM MgCl2) with 100 mM then 250 mM KCl; glycine pH 2.6 elution; MudPIT; MOCK IP with an antibody to yeast TAF90 as control

binding: binds
B1: Mof (male absent on the first) (enzyme, UniProt Q9D1P2 1-458)
chain: MAAQGATAAVAATTSGTVGEGEPGPGENAAVEGPARSPGRVSPPTPARGEPEVTVEIGETYLCRRPDSTWHSAEVIQSRVNDQEGREEFYVHYVGFNRRLDEWVDKNRLALTKTVKDAVQKNSEKYLSELAEQPERKITRNQKRKHDEINHVQKTYAEMDPTTAALEKEHEAITKVKYVDKIHIGNYEIDAWYFSPFPEDYGKQPKLWLCEYCLKYMKFEKSYRFHLGQCQWRQPPGKEIYRKSNISVYEVDGKDHKIYCQNLCLLAKLFLDHKTLYFDVEPFVFYILTEVDRQGAHIVGYFSKEKESPDGNNVACILTLPPYQRRGYGKFLIAFSYELSKLESTVGSPEKPLSDLGKLSYRSYWSWVLLEILRDFRGTLSIKDLSQMTSITQNDIISTLQSLNMVKYWKGQHVICVTPKLVEEHLKSAQYKKPPITVDSVCLKWAPPKHKQVKLSKK
